The target in test [1] is GST-tagged C-terminal region of DDX3 (GST-DDX3^535–662) (human) (UniProt O00571). The experiment in a line: pull-down; bead-bound GST-DDX3 variants incubated with U2OS-WT or U2OS-2RK cell extracts; binding buffer PBS with 0.5% NP-40, 0.25% sodium deoxycholate, 5% glycerol, protease inhibitors; 4 °C, 1 h; only the target purified.
Test [2] has as its target GST-tagged full-length DDX3 (GST-DDX3^1–662) (human) (UniProt O00571). The experiment in a line: pull-down; bead-bound GST-DDX3 variants incubated with recombinant hnRNPK or the KI segment; binding buffer PBS with 0.5% NP-40, 0.25% sodium deoxycholate, 5% glycerol, protease inhibitors; 4 °C, 1 h; three washes; SDS-PAGE; both purified.
Test [3] addresses GST-tagged C-terminal region of DDX3 (GST-DDX3^535–662) (human) (UniProt O00571). Described as above.
Test [4] concerns the target Flag-tagged wild-type hnRNPK in U2OS-WT cells (UniProt P61978). Nature of the test: co-IP; Flag-hnRNPK precipitated with anti-Flag antibody and protein G Sepharose from U2OS-WT, U2OS-2RK or U2OS-2RK/1SA lysates (PBS, 0.5% Triton X-100, 4 °C, 3 h); endogenous DDX3 detected by blot; cells untreated or treated with etoposide (50 μM), RK-33 (5 or 10 μM), AMPPNP (5 μM), AMP (5 μM) or AVN A.

Chains of the proteins cited; added tags and fusions are not shown. Lines headed by an entry give the natural chain unless they say otherwise; changes in a name come on top. A line that says so, or that is headed by a name, gives the form on record, which may keep a tag or linker. Residues count along the entry.
UniProt O00571: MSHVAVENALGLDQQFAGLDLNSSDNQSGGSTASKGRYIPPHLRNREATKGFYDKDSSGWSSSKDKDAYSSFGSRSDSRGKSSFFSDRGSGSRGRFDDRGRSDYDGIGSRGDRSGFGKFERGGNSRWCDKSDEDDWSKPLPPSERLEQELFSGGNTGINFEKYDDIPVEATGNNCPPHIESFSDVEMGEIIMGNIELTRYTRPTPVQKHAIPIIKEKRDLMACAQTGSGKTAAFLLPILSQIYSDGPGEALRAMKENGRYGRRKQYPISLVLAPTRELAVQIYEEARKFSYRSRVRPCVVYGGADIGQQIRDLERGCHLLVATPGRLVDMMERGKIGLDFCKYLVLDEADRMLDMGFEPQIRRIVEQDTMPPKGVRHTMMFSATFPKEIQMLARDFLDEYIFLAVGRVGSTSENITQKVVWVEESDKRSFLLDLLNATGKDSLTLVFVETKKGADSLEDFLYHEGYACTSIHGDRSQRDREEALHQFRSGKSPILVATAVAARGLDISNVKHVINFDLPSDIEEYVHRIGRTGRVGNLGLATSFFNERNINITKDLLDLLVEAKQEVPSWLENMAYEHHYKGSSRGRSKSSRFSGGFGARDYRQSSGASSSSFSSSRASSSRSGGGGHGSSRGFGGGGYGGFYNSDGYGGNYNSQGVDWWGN
GST-tagged C-terminal region of DDX3 (GST-DDX3^535–662): residues 535-662 of O00571

Test [5] concerns the target Flag-tagged methylation-defective hnRNPK (hnRNPK^MD, R296K/R299K) in U2OS-2RK cells (UniProt P61978). The test is described as above.
For test [6] the target is unchanged. Nature of the test: co-IP; U2OS-2RK cells transfected with Myc-DDX3 variants (36 or 48 h); immunoprecipitation of hnRNPK-2RK, precipitated Myc-DDX3 detected by blot.

These are yes or no findings as the source states them, for the method shown. For some of these results: Binding seen in cells or lysates may run through a third protein. Some results given as binding are weak or reduced against the parent protein; the word gives no strength.

Take “Flag-tagged methylation-defective hnRNPK (hnRNPK^MD, R296K/R299K) in U2OS-2RK cells (from UniProt P61978 1-463)”: the binding entry in test [1] is on record as “binds”.
Consider “recombinant His6-tagged hnRNPK (from pET23a-Trx-hnRNPK) (from UniProt P61978 1-463)”, for which the binding result in test [2] and in test [3] was “binds” each time.
For “Flag-tagged wild-type hnRNPK in U2OS-WT cells (from UniProt P61978 1-463)”, the binding result in test [1] was “binds”.
Regarding “DDX3, endogenous in U2OS cells (from UniProt O00571 1-662)”, the binding result in test [4] and in test [5] was “binds” in each case.
For “Myc-tagged full-length DDX3 (Myc-DDX3^1–662) (from UniProt O00571 1-662)”, the binding result in test [6] is “binds”.

These data come from paper PMC8469703.
